Reference: PubChem BioAssay AID1671190 (National Center for Advancing Translational Sciences (NCATS), 2021)
The whole screen tested about 580,000 compounds, of which about 6,100 (1.1%) were called active. Inconclusive means that the source gave no clear call. Such entries were picked first, then a sample of the others. Calls follow the shape of the dose curve; as a rule, active = well fitted inhibition curve with a large enough effect; inconclusive = small, poorly fitted or top-dose-only effect, or another doubt; inactive = no such curve, though single readings can be large or run the other way. A potency beside an inconclusive call is a rough fit, not a confirmed value.

Protein sequences, listed by entry. Tags and fused reporters are not part of them. Lines headed by an entry give the natural chain unless they say otherwise; changes in a name come on top.
UniProt P18054: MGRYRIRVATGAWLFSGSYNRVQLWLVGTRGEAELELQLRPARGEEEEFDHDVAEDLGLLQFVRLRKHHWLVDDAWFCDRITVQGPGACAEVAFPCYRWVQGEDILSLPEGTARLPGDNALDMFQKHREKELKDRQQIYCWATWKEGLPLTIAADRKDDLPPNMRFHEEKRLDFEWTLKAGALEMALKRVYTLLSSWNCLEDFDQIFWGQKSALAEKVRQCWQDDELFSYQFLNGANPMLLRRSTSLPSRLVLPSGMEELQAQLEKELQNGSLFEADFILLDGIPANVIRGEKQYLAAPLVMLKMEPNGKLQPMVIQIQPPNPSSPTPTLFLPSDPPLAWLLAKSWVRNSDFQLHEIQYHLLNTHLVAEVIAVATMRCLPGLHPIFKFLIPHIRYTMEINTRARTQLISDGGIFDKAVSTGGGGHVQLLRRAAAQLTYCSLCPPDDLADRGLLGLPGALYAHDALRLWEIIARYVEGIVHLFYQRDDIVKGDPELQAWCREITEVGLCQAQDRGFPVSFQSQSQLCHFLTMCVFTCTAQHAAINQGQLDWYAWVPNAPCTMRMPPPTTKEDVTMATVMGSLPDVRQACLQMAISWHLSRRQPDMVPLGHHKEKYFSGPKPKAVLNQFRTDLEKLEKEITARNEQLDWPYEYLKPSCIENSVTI

Molecular target: Polyunsaturated fatty acid lipoxygenase ALOX12 (Homo sapiens) (UniProt P18054)
Experiment: Primary qHTS assay for inhibitors of human arachidonate 12S-lipoxygenase (ALOX12): Round 2
Details: purified 12hLO, xylenol orange hydroperoxide absorbance; activity change, negative = inhibition: at 108 µM (top of the series) unless noted
Summary of the method: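 Purified human 12hLO (150 nM final) in 25 mM Hepes, 0.01% Triton X-100, pH 7.0 was preincubated 15 min at room temperature with compound. Then 40 uM arachidonic acid was added, 30 min. Hydroperoxide was read by Fe-XO absorbance ratio 573/405 nm.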
% is scaled to controls: 0 for no effect and ±100 for the full control effect; potency is read from the fitted curve at half-maximal effect.

SMILES	Potency	activity change, negative = inhibition
O=C(Nc1nnc(C2CC2)o1)c1ccc(S(=O)(=O)N2CCCc3ccccc32)cc1	inconclusive: 89.1 µM [inhibitor, single point]	
COC(=O)c1ccc(N2CCCCC2)c(NS(=O)(=O)c2ccc(C)cc2)c1	inactive	
COC(=O)[C@]1(C)N[C@H](CN(C)C(=O)c2ccccc2)[C@@H]2C(=O)N(Cc3ccccc3)C(=O)[C@@H]21	inconclusive: 100 µM [inhibitor, partial curve, poor fit]	
COc1cc2c(cc1OC)C(C)N(CC(=O)Nc1cc(C)cc(C)c1)CC2 (configuration not stated)	inactive	
Cc1ccccc1OCc1nc(C#N)c(NCCN2CCOCC2)o1	inconclusive: 158 µM [inhibitor, single point]	
O=C(CCC(=O)N1CCN(c2ccc(F)cc2)CC1)c1ccc(F)cc1	inactive	
CS(=O)(=O)N1CCN(C(C(=O)O)c2c[nH]c3cc(Cl)ccc23)CC1 (configuration not stated)	inconclusive: 44.7 µM [inhibitor, partial curve, poor fit]	
O=C(O)CNS(=O)(=O)c1ccc(F)c(F)c1F	inconclusive: 1.12 µM [inhibitor, full curve, poor fit]	
CCCCCOc1ccc(Br)cc1/C(C)=N/NC1=NCCN1	inconclusive: 39.8 µM [inhibitor, partial curve, poor fit]	
COc1ccc(CNS(=O)(=O)c2ccc3c(c2)N(C)CCS3)cc1	inconclusive: 28.2 µM [inhibitor, partial curve, poor fit]	
Cc1ccc(S(=O)(=O)Nc2ccc(Cl)cc2O)cc1	active: 28.2 µM	
O=C(NC(NC(=S)Nc1ccccc1)C(Cl)(Cl)Cl)c1cccc(Cl)c1 (configuration not stated)	inconclusive: 31.6 µM [inhibitor, partial curve]	
Nc1nc(CN2CCC(Cc3ccccc3)CC2)nc(Nc2ccccc2)n1	inconclusive: 70.8 µM [inhibitor, partial curve, poor fit]	
O=C(Nc1ccc(C(=O)O)cc1)/C(=C\c1ccco1)NC(=O)c1ccc(Br)o1	inconclusive: 50.1 µM [inhibitor, partial curve, poor fit]	
COc1ccc(-c2nc3ccc(C)cn3c2Cc2ccc(C)cc2)cc1OC	inconclusive: 44.7 µM [inhibitor, partial curve, poor fit]	
CC(C)CC1C(=O)N(Cc2cn(CC3CCCCC3)nn2)CCS(=O)(=O)N1Cc1ccc(-c2ccc(F)nc2)cc1 (configuration not stated)	inconclusive: 100 µM [inhibitor, single point]	
O=C(NC1CC(=O)N(c2ccc(F)cc2)C1)c1ccc(S(=O)(=O)N2CCCCC2)cc1 (configuration not stated)	inconclusive: 158 µM [inhibitor, partial curve, poor fit]	
CCCc1nnc2sc(C(C)(C)Oc3ccc(Cl)cc3)nn12	inactive	
Cc1cc(-c2cccc(CCOc3cnc4c(ccn4CC(=O)O)c3)c2)ccn1	inactive	
COc1ccc(Nc2nnc(SCc3cc(=O)n4ccsc4n3)s2)cc1	inconclusive: 39.8 µM [inhibitor, partial curve, poor fit]	
C/C(=N\NC(=O)c1ccc(Br)cc1)C1C(=O)c2ccccc2C1=O	inactive	

Retrieved by compound from the list above:
SMILES	Potency	activity change, negative = inhibition
COc1cc2c(cc1OC)C(C)N(CC(=O)Nc1cc(C)cc(C)c1)CC2 (configuration not stated)	inactive	
Nc1nc(CN2CCC(Cc3ccccc3)CC2)nc(Nc2ccccc2)n1	inconclusive: 70.8 µM [inhibitor, partial curve, poor fit]	
CCCCCOc1ccc(Br)cc1/C(C)=N/NC1=NCCN1	inconclusive: 39.8 µM [inhibitor, partial curve, poor fit]	

Following part.

SMILES	Potency	activity change, negative = inhibition
O=C(O)c1cccc(S(=O)(=O)Nc2ccc(-c3ccccc3)cc2)c1	inconclusive: 89.1 µM [inhibitor, partial curve, poor fit]	
CSc1ccc(C(=O)C2CCCN(C(=O)c3cc4cc(F)ccc4[nH]3)C2)cc1 (configuration not stated)	inconclusive: 112 µM [inhibitor, single point]	
Cc1c(NC(=O)/C(C#N)=C/c2ccc(-c3ccc(Cl)c(Cl)c3)o2)c(=O)n(-c2ccccc2)n1C	inactive	
CCCCn1c(-c2nn(C)cc2Cl)n[nH]c1=S	inconclusive: 44.7 µM [inhibitor, partial curve, poor fit]	
O=C(CCN1C(=O)/C(=C\C=C\c2ccccc2)SC1=S)Nc1ccccc1C(=O)O	inconclusive: 39.8 µM [inhibitor, partial curve, poor fit]	
O=C(O)c1ccc2c(c1)ncn2C1CCCCCC1	inactive	
COc1ccccc1N1CCN(c2nc3c(C)cccn3c(=O)c2C=O)CC1		inconclusive: -31.9% [inhibitor]
Cc1ccc2c(c1Br)C(O)(CC(=O)c1ccc(F)cc1)C(=O)N2 (configuration not stated)	inconclusive: 126 µM [inhibitor, partial curve, poor fit]	
CCN(c1ccc(NC(=O)CCc2ccccc2)cc1)C(C)C	inconclusive: 50.1 µM [inhibitor, partial curve, poor fit]	
COc1ccc(C(=O)CSc2nnc(-c3cccnc3)n2Cc2ccco2)cc1		inconclusive: -39.8% [inhibitor]
CCCCCCNC(=O)c1cc(-c2cccc(Br)c2)nc2ccccc12	inconclusive: 70.8 µM [inhibitor, partial curve, poor fit]	
O=C(O)c1ccc2c(=O)n3c(nc2c1)/C(=C/c1cccc(O)c1)CC3	active: 7.94 µM	
CCN1CC(CN(C)Cc2nnc(C)o2)Oc2ccccc21 (configuration not stated)	inactive	
CCOC(=O)CN1NC2(CCC(C(C)(C)C)CC2)NC1=S (configuration not stated)	inconclusive: 17.8 µM [inhibitor, full curve, poor fit]	
Cc1ccc(C)c(C(=O)C(C)Oc2ccc(C#N)cc2)c1 (configuration not stated)	inactive	
Cc1c(C=O)c2ccccc2n1CC(=O)N1CCc2ccccc2C1	inconclusive: 2.82 µM [inhibitor, partial curve, poor fit]	
CCOC(=O)c1ccc(N2C(=O)c3[nH]nc(-c4ccccc4)c3C2c2ccc(CC)cc2)cc1 (configuration not stated)	inconclusive: 0.562 µM [inhibitor, full curve, poor fit]	
c1coc(-c2ccnc3nc(C4CCC4)nn23)c1	inconclusive: 12.6 µM [inhibitor, full curve, poor fit]	
Cc1cc(C)n2nc(CC#N)c(C#N)c2n1	inactive	
CCCCOC(=O)Nc1nc(CC(=O)OCC)cs1	inconclusive: 3.98 µM [inhibitor, full curve, poor fit]	
CCOc1ccccc1C(=O)N(Cc1ccco1)Cc1ccco1	inconclusive: 112 µM [inhibitor, partial curve, poor fit]	
